{"source": "PubChem BioAssay AID624297", "about": "(National Center for Advancing Translational Sciences (NCATS), 2012)", "note": "The whole screen tested about 340,000 compounds, of which about 6,200 (1.8%) were called active. This list was built around the results that the source calls inconclusive (neither active nor inactive); the mix of calls is not that of the screen. Calls follow the shape of the dose curve; as a rule, active = well fitted activation curve with a large enough effect; inconclusive = small, poorly fitted or top-dose-only effect; inactive = no such curve, though single readings can be large or run the other way. Potencies of inconclusive entries are doubtful fits and often do not repeat. Potency is read from the fitted curve at half-maximal effect."}
{"experiment": "A quantitative high throughput screen for small molecules that induce DNA re-replication in SW480 colon adenocarcinoma cells; also: nearly all actives have a fitted effect of over 55% in size; as to re-replication activation: % of control where 0% means no effect.", "settings": "Hoechst DNA content imaging, 48 h; re-replication activation: at 46.1 µM (top of the series) unless noted", "in_short": "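SW480 cells exposed to compounds for 48 hr at 37 C, 5% CO2, then Hoechst-stained 40 min. Nuclear DNA content imaged by fluorescence scanning (405 nm excitation, 500-530 nm emission); re-replication scored as increased high-intensity nuclei.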"}
{"smiles": "COc1ccc(C(=O)Nc2ccc(C3CC3(Cl)Cl)cc2)cc1", "note": "(centres undefined)", "re-replication activation": "inactive: 8.73%"}
{"smiles": "CCOc1ccc(NC(=O)Cn2nnc(C(=O)NCc3cccs3)c2N)cc1", "re-replication activation": "inactive: 0.206%"}
{"smiles": "CC(C)N1CCc2c(sc(NC(=O)C3CCCCC3)c2C(N)=O)C1", "re-replication activation": "inactive: -3.43%"}
{"smiles": "CCC(C)Sc1nc2c(cnn2-c2ccc(C)c(C)c2)c(=O)[nH]1", "note": "(centres undefined)", "re-replication activation": "inactive: 0.836%"}
{"smiles": "O=C(Nc1cccc(NC(=O)c2cccs2)c1)c1ccc(F)cc1", "re-replication activation": "inactive: 3.67%"}
{"smiles": "Cc1ccc(C)n1-c1cccc(S(=O)(=O)N2CCOCC2)c1", "Potency": "inconclusive: 29.1 µM [activator, single point]"}
{"smiles": "O=C(Nc1ccc(S(=O)(=O)N2CCOCC2)cc1)c1cccs1", "re-replication activation": "inactive: 11.3%"}
{"smiles": "CC(=O)C(/C=N/c1cc(-c2ccc(C)cc2)nn1-c1ccccc1)=C(\\C)O", "re-replication activation": "inactive: -0.322%"}
{"smiles": "CCN(CC(=O)NCc1ccccc1Cl)CC(=O)Nc1c(F)cccc1F", "re-replication activation": "inactive: -16.6%"}
{"smiles": "O=C(CN1CCN(C(=O)c2cccc(-n3cnnn3)c2)CC1)Nc1ccccc1Cl", "re-replication activation": "inactive: -3.06%"}
{"smiles": "COc1ccc(OCC(O)Cn2c(Br)nc3c2c(=O)[nH]c(=O)n3C)cc1", "note": "(centres undefined)", "Potency": "inconclusive: 29.1 µM [activator, single point]"}
{"smiles": "CCc1nnc(NC(=O)c2ccc(COc3ccc(C)cc3)o2)s1", "re-replication activation": "inactive: -3.2%"}
{"smiles": "Cc1sc2ncnc(SC(C)C#N)c2c1C", "note": "(centres undefined)", "Potency": "inconclusive: 29.1 µM [activator, partial curve, poor fit]"}
{"smiles": "CCCN(CCC)CCN1C(=O)C2C(C(=O)Nc3cccc(SC)c3)C3C=CC2(O3)C1C(=O)NC1CCCCC1", "note": "(centres undefined)", "Potency": "inconclusive: 29.1 µM [activator, single point]"}
{"smiles": "C=CCNC(=S)NNC(=O)c1ccc(OCC(C)C)cc1", "Potency": "active: 18.4 µM"}
{"smiles": "CCOC(=O)C1=NN(c2ccc(C)cc2)CC1C(=O)OC", "note": "(centres undefined)", "Potency": "inconclusive: 0.517 µM [activator, full curve, poor fit]"}
{"smiles": "O=C(CCn1c(=O)oc2ccc(Cl)cc21)N1CCN(c2ccccc2)CC1", "Potency": "inconclusive: 20.6 µM [activator, partial curve, poor fit]"}
{"smiles": "COc1cccc(/C=N/NC(=O)C[n+]2ccccc2)c1O", "Potency": "inconclusive: 16.4 µM [activator, single point]"}
{"smiles": "O=C1C=C(c2ccccc2)C(=O)N1Nc1ccccc1", "Potency": "inconclusive: 18.4 µM [activator, single point]"}
{"smiles": "COc1ccc(N(CC(=O)NC2CCCCCC2)S(=O)(=O)c2ccccc2)cc1Cl", "Potency": "inconclusive: 16.4 µM [activator, partial curve, poor fit]"}
{"smiles": "O=C1CCCN1CC(O)CS(=O)(=O)Cc1ccccc1", "note": "(centres undefined)", "Potency": "inconclusive: 2.59 µM [activator, partial curve, poor fit]"}
{"smiles": "O=C(CNC(=O)C1COc2ccccc2O1)N/N=C/c1ccc(O)cc1O", "note": "(centres undefined)", "Potency": "inconclusive: 4.11 µM [activator, full curve, poor fit]"}
{"smiles": "CCCOC1CCCN(Cc2nc(-c3ccc(C(=O)OC)cc3)no2)C1", "note": "(centres undefined)", "re-replication activation": "inactive: 21.3%"}
{"smiles": "Nn1c(Cc2cccc3ccccc23)nnc1SCc1ccc(Cl)c(Cl)c1", "Potency": "inconclusive: 32.6 µM [activator, single point]"}
{"smiles": "C/C=C/c1ccc(OCCCCN2CC(C)CC(C)C2)c(OC)c1", "note": "(centres undefined)", "Potency": "inconclusive: 20.6 µM [activator, partial curve, poor fit]"}
{"smiles": "CC(=NCCc1ccccc1)C1=C(O)C(c2ccccc2)OC1=O", "note": "(centres undefined)", "Potency": "inconclusive: 25.9 µM [activator, partial curve, poor fit]"}
{"smiles": "CC(=N\\NC(=O)c1ccccc1)/C(=N/O)C(=O)Nc1ccccc1", "Potency": "inconclusive: 16.4 µM [activator, single point]"}
{"smiles": "Cc1ccc(O)c(/C=N/NC(=O)COc2ccc3c(C)cc(=O)oc3c2)c1", "Potency": "inconclusive: 11.6 µM [activator, partial curve, poor fit]"}
{"smiles": "CCCC(=O)N(CCN1CCOCC1)c1nc2ccc(OCC)cc2s1", "Potency": "inconclusive: 0.517 µM [activator, full curve]"}
{"smiles": "COC(=O)c1cccc(C#CC(NP(=O)(c2ccccc2)c2ccccc2)c2ccccc2)c1", "note": "(centres undefined)", "Potency": "inconclusive: 29.1 µM [activator, single point]"}
{"smiles": "CC[C@]1(c2ccccc2OC)C(=O)N(C(=O)OC)N1C(=O)OC", "Potency": "active: 23.1 µM"}
{"smiles": "CCN(CC)S(=O)(=O)c1ccc(N2CCCC2)c(NC(=O)C2=COCCO2)c1", "Potency": "inconclusive: 14.6 µM [activator, partial curve, poor fit]"}
{"smiles": "CC1CCCCN1CC(O)COCCC12CC3CC(CC(C3)C1)C2", "note": "(centres undefined)", "Potency": "inconclusive: 29.1 µM [activator, single point]"}
{"smiles": "Cc1[nH]c2ccccc2c1C(=O)C(=O)N1CCCc2ccccc21", "Potency": "inconclusive: 20.6 µM [activator, partial curve, poor fit]"}
{"smiles": "COc1ccc(CNS(=O)(=O)c2ccc3c(c2)NC(=O)CS3)cc1", "Potency": "inconclusive: 23.1 µM [activator, single point]"}
{"smiles": "COC(=O)c1ccc2c(c1)NC1=C(C(=O)CC(C)(C)C1)C(c1ccncc1)N2", "note": "(centres undefined)", "Potency": "inconclusive: 23.1 µM [activator, partial curve, poor fit]"}
{"smiles": "O=C(CSc1nnc(NC2CC2)s1)Nc1ccc(N2CCOCC2)cc1", "Potency": "inconclusive: 29.1 µM [activator, single point]"}
{"smiles": "COc1ccc(NC(=O)CN2C(=O)NC3(CCCCCC3)C2=O)cc1Cl", "Potency": "inconclusive: 20.6 µM [activator, single point]"}
{"smiles": "O=C1/C(=C/c2ccccc2)SC(=S)N1CC(=O)N1CCCCC1c1cccnc1", "note": "(centres undefined)", "Potency": "inconclusive: 23.1 µM [activator, single point]"}
{"smiles": "COc1cc(NC(=O)NCCN2CCN(c3ccc(Cl)cc3)CC2)ccc1C", "Potency": "inconclusive: 29.1 µM [activator, single point]"}
{"smiles": "COc1cc(Br)c(CN2C(=O)NC3(CCCCCC3)C2=O)cc1OC", "re-replication activation": "inactive: 12.4%"}
{"smiles": "CCCc1nc2cc3c(cc2[nH]1)n(C)c(=O)n3C", "re-replication activation": "inactive: -10.3%"}
{"smiles": "O=C1NCCCC1C(=O)N/N=C/c1cc([N+](=O)[O-])ccc1O", "note": "(centres undefined)", "Potency": "inconclusive: 20.6 µM [activator, single point]"}
{"smiles": "CCCCn1nc(C(=O)Nc2c(C)n(C)n(-c3ccccc3)c2=O)c2ccccc2c1=O", "re-replication activation": "inactive: -9.19%"}
{"smiles": "COc1ccc(OCCNC(=O)c2cccc(Oc3ccc(C(F)(F)F)cc3[N+](=O)[O-])c2)cc1", "re-replication activation": "inactive: -34.3%"}
{"smiles": "Cc1cnc(C(=O)OC(C)C(=O)Nc2cccc3ccccc23)cn1", "note": "(centres undefined)", "Potency": "inconclusive: 7.31 µM [activator, partial curve, poor fit]"}
{"smiles": "O=S(=O)(c1ccccc1F)N1CCN(Cc2cc3c(cc2Br)OCCO3)CC1", "re-replication activation": "inactive: -5.83%"}
{"smiles": "COc1ccc(-c2oc3ccc(N4CCOCC4)cc3c2/C=C/c2ccc(OC)c(OC)c2)cc1", "Potency": "inconclusive: 7.31 µM [activator, partial curve, poor fit]"}
{"smiles": "COc1ccc(CCNC(=O)Cn2c(=O)cnc3ccccc32)cc1", "Potency": "inconclusive: 29.1 µM [activator, single point]"}
{"smiles": "O=C(CCCn1c(=S)[nH]c2cc3c(cc2c1=O)OCO3)N1CCN(c2ccc(F)cc2)CC1", "re-replication activation": "inactive: -0.882%"}
{"smiles": "O=C(NCc1ccccc1)c1cc(-c2cccc(O)c2)on1", "Potency": "active: 6.51 µM"}
{"smiles": "Cc1cc(-c2nc(C)c(C(=O)NN)s2)no1", "Potency": "inconclusive: 29.1 µM [activator, single point]"}
{"smiles": "Cc1cccc(C(=O)N2CCCC(N3CCN(c4ccccc4)CC3)C2)n1", "note": "(centres undefined)", "Potency": "inconclusive: 20.6 µM [activator, single point]"}
{"smiles": "CCn1c(SCc2cccc(OC)c2)nc2ccccc2c1=O", "Potency": "inconclusive: 29.1 µM [activator, single point]"}
{"smiles": "COc1ccc(Br)cc1S(=O)(=O)n1nc(C)cc1C", "Potency": "inconclusive: 3.26 µM [activator, partial curve, poor fit]"}
{"smiles": "CCOc1ccc(-c2nn3c(-c4ccc(F)cc4)nnc3s2)cc1", "re-replication activation": "inactive: 1.47%"}
{"smiles": "CN(CC(=O)Nc1ccc(F)c(F)c1F)c1ncnc2sccc12", "re-replication activation": "inactive: -13.8%"}
{"smiles": "O=C(c1ccc2ccccc2c1)N1CCc2ccccc21", "Potency": "inconclusive: 6.51 µM [activator, full curve, poor fit]"}
{"smiles": "C/C(=N\\N1C(=O)c2ccccc2NC1c1ccco1)c1ccccc1O", "note": "(centres undefined)", "Potency": "inconclusive: 0.82 µM [activator, full curve, poor fit]"}
{"smiles": "Cc1cccc(Nc2nc(N)nc(CCl)n2)c1", "Potency": "inconclusive: 3.26 µM [activator, full curve]"}
{"smiles": "O=C(Cc1ccsc1-c1ccccc1)NO", "Potency": "inconclusive: 29.1 µM [activator, single point]"}
{"smiles": "O=C(O)COc1ccc2c(c1)O/C(=C\\c1cccs1)C2=O", "Potency": "active: 16.4 µM"}
{"smiles": "O=C(O)COc1ccc(Br)cc1CP(=O)(c1ccccc1)c1ccccc1", "Potency": "inconclusive: 6.51 µM [activator, single point]"}
{"smiles": "COc1ccc(C(=O)NNC(=S)NC(=O)c2ccccc2)cc1", "Potency": "inconclusive: 25.9 µM [activator, single point]"}
{"smiles": "CSc1ccc(-c2nc(CSCC(=O)NCCCN3CCCC3=O)c(C)o2)cc1", "Potency": "inconclusive: 1.84 µM [activator, partial curve, poor fit]"}
{"smiles": "CCN(C[C@H]1N[C@@](Cc2ccccc2)(C(=O)OC)[C@H]2C(=O)N(Cc3ccccc3)C(=O)[C@@H]12)C(=O)Nc1ccc(F)cc1", "Potency": "inconclusive: 2.91 µM [activator, single point]"}
{"smiles": "O=C(COC(=O)Cc1ccc(Cl)cc1)Nc1cc(S(=O)(=O)N2CCOCC2)ccc1N1CCCC1", "Potency": "inconclusive: 0.0041 µM [activator, full curve, poor fit]"}
{"smiles": "COCCN(C(=O)c1snc(C(N)=O)c1N)C(C(=O)NC1CCCCC1)c1ccc(N(C)C)cc1", "note": "(centres undefined)", "re-replication activation": "inactive: -1.11%"}
{"smiles": "Cc1cc(C(=O)N2CCC(C(N)=O)CC2)c(C)o1", "Potency": "active: 16.4 µM"}
